According to the supplement of paper PMC4749390:
Structures can show the parent of a compound that is named as a salt. The list shows a part of the results. Single values are uncertain here, since repeats match poorly.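 JEG3 cells stably express tetracycline-inducible wild-type human LRH-1, a highly sumoylated nuclear receptor. SUMO-sensitive transcripts APOC3 and MUC1, increased by SUMO-deficient LRH-1 or UBC9 knockdown, were quantified by RT-qPCR relative to TBP and DMSO controls. Primary hits had robust Z-scores above +2 or below -2, before toxicity and TBP filtering.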

system: JEG3 expressing hLRH-1; experiment: APOC3 transcript change (ddCt vs TBP and DMSO), Z-score over library; higher = higher APOC3 expression; conditions: 10 µM; time (hr): 24

SMILES | APOC3 transcript change (Z-score)
Cc1cccc(CN2CCN(C(c3ccccc3)c3ccc(Cl)cc3)CC2)c1 (stereo not given) [meclizine hydrochloride] | 0.7
CCN(CC)C(=S)SSC(=S)N(CC)CC [disulfiram] | -0.641
CC1(C)S[C@@H]2[C@H](NC(=O)C(C(=O)O)c3ccccc3)C(=O)N2[C@H]1C(=O)O (stereo not given in full) [carbenicillin disodium] | 1.81
COc1ccc(OC)c(C(O)CNC(=O)CN)c1 (stereo not given) [midodrine hydrochloride] | 0.678
C[C@H](N)[C@H](O)c1cccc(O)c1 [metaraminol bitartrate] | -0.794
CC(=O)OCC(=O)[C@@]1(O)CCC2C3CCC4=CC(=O)C=CC4(C)C3[C@@H](O)C[C@@]21C (stereo not given in full) [prednisolone acetate] | 0.0674
Cc1ccccc1OCC(O)CO (stereo not given) [mephenesin] | -0.345
N=C(N)N [guanidine carbonate] | -0.673
OCCN1CCN(CCCN2c3ccccc3Sc3ccc(Cl)cc32)CC1 [perphenazine] | 0.821
CN[C@@H]1[C@@H](O)[C@@H](O[C@@H]2[C@@H](O)[C@H](O[C@H]3OC(CN)=CC[C@H]3N)[C@@H](N)C[C@H]2N)OC[C@]1(C)O [sisomicin sulfate] | -0.709
COc1ccc(C[C@H](N)C(=O)N[C@@H]2[C@@H](CO)OC(n3cnc4c(N(C)C)ncnc43)[C@@H]2O)cc1 (stereo not given in full) [puromycin hydrochloride] | -5.63
CN(C)C(=O)C(CCN1CCC(O)(c2ccc(Cl)cc2)CC1)(c1ccccc1)c1ccccc1 [Loperamide hydrochloride] | 0.496
CN(C)CCC=C1c2ccccc2CCc2ccccc21 [Amitriptyline hydrochloride] | -0.826
CC(C)OC(=O)CCC/C=C\C[C@@H]1[C@@H](/C=C/[C@@H](O)COc2cccc(C(F)(F)F)c2)[C@H](O)C[C@@H]1O [travoprost] | 0.939
CCC(=O)Oc1ccc2c(c1)CC[C@@H]1[C@@H]2CC[C@]2(C)[C@@H](OC(=O)CC)CC[C@@H]12 [estradiol dipropionate] | -0.739
Clc1ccccc1CN1CCc2sccc2C1 [ticlopidine hydrochloride] | -1.4
CCCC1O[C@@H]2C[C@H]3[C@@H]4CCC5=CC(=O)C=C[C@]5(C)[C@H]4[C@@H](O)C[C@]3(C)[C@]2(C(=O)CO)O1 (stereo not given in full) [budesonide] | 0.532
OCC(O)CN1CCN(c2ccccc2)CC1 (stereo not given) [dropropizine] | -0.0917
CN1C2CC[C@H]1C[C@@H](OC(=O)C(O)c1ccccc1)C2 (stereo not given in full) [homatropine bromide] | 0.104
CC(COc1ccccc1)N(CCCl)Cc1ccccc1 (stereo not given) [Phenoxybenzamine hydrochloride] | -1.11
CN(C/C=C/c1ccccc1)Cc1cccc2ccccc12 [naftifine hydrochloride] | -0.02
CC(=O)[C@H]1CCC2C3C=CC4=CC(=O)CC[C@@]4(C)C3CC[C@@]21C (stereo not given in full) [dydrogesterone] | 0.287
COC1=CC(=O)C[C@@H](C)[C@]12Oc1c(Cl)c(OC)cc(OC)c1C2=O [griseofulvin] | 1.35

Another view of some results above:
SMILES	APOC3 transcript change (Z-score)
CC(C)OC(=O)CCC/C=C\C[C@@H]1[C@@H](/C=C/[C@@H](O)COc2cccc(C(F)(F)F)c2)[C@H](O)C[C@@H]1O [travoprost]	0.939
CCC(=O)Oc1ccc2c(c1)CC[C@@H]1[C@@H]2CC[C@]2(C)[C@@H](OC(=O)CC)CC[C@@H]12 [estradiol dipropionate]	-0.739

Continuation:

SMILES | APOC3 transcript change (Z-score)
CCOC(=O)N1CCC(=C2c3ccc(Cl)cc3CCc3cccnc32)CC1 [loratadine] | -0.654
CCOc1nc2cccc(C(=O)O)c2n1Cc1ccc(-c2ccccc2-c2nn[nH]n2)cc1 [candesartan] | -0.831
CC[C@@H]1C(=O)OC[C@@H]1Cc1cncn1C [(+)-Pilocarpine hydrochloride] | -1.01
CCCCCN(CCCCC)C(=O)C(CCC(=O)O)NC(=O)c1ccc(Cl)c(Cl)c1 (stereo not given) [Lorglumide sodium] | 0.0633
Cn1nnnc1SCC1=C(C(=O)O)N2C(=O)C(NC(=O)C(OC=O)c3ccccc3)C2SC1 (stereo not given) [cefamandole nafate] | -0.254
CC[C@H]1OC(=O)C[C@@H](O)[C@H](C)[C@@H](O[C@@H]2O[C@H](C)[C@@H](O[C@H]3C[C@@](C)(O)[C@@H](O)[C@H](C)O3)[C@H](N(C)C)[C@H]2O)[C@@H](CC=O)C[C@@H](C)C(=O)/C=C/C(C)=C/[C@@H]1CO[C@@H]1O[C@H](C)[C@@H](O)[C@@H](OC)[C@H]1OC [tylosin tartrate] | -0.382
CN1C2CCCC1CC(NC(=O)c1nn(C)c3ccccc13)C2 (stereo not given) [granisetron hydrochloride] | 0.512
CC1=C(/C=C/C(C)=C/C=C/C(C)=C/C=C/C=C(C)/C=C/C=C(C)/C=C/C2=C(C)CCCC2(C)C)C(C)(C)CCC1 [beta-carotene] | 0.278
COc1ccc(C(=O)c2ccccc2)c(O)c1 [oxybenzone] | -0.512
COc1ncnc(NS(=O)(=O)c2ccc(N)cc2)c1OC [sulfadoxine] | 1.21
CCS(=O)(=O)CCn1c([N+](=O)[O-])cnc1C [tinidazole] | -0.0424
COc1ccc(C(=O)CC(=O)c2ccc(C(C)(C)C)cc2)cc1 [avobenzone] | -0.00456
CC[N+](C)(CC)CCOC(=O)C(O)(c1ccccc1)C1CCCCC1 (stereo not given) [oxyphenonium bromide] | -0.195
CC12CCC3C(=CCc4cc(O)ccc43)C1CCC2=O (stereo not given) [equilin] | 0.416
CN1CCc2c(c3ccccc3n2Cc2ccccc2)C1 [mebhydrolin naphthalenesulfonate] | 0.532
CCCCCC(=O)O[C@]1(C(C)=O)CC[C@H]2[C@@H]3CCC4=CC(=O)CC[C@]4(C)[C@H]3CC[C@@]21C [hydroxyprogesterone caproate] | 0.546
CC[N+](CC)(CC(=O)Nc1c(C)cccc1C)Cc1ccccc1 [denatonium benzoate] | -0.227
Cc1cc(C)cc(OCC2CNC(=O)O2)c1 (stereo not given) [metaxalone] | 1.03
CCCCc1nc(Cl)c(CO)n1Cc1ccc(-c2ccccc2-c2nn[nH]n2)cc1 [losartan] | -0.327
CN1C(C(=O)Nc2ccccn2)=C(O)c2ccccc2S1(=O)=O [piroxicam] | 0.401
C[C@@H](O)[C@H]1C(=O)N2C(C(=O)O)=C(S[C@@H]3CN[C@H](C(=O)N(C)C)C3)[C@H](C)[C@H]12 [meropenem] | 0.296
C[C@@H]1O[C@@H](OC[C@H]2O[C@@H](Oc3c(-c4ccc(OCCO)c(OCCO)c4)oc4cc(OCCO)cc(O)c4c3=O)[C@H](O)[C@@H](O)[C@@H]2O)[C@H](O)[C@H](O)[C@H]1O [troxerutin] | -0.969
